Reference: patent US7351843B2, “Furancarbonylguanidine derivatives, their preparation and pharmaceutical compositions containing them” (Korea Research Institute of Chemical Technology, priority 2003, dated 2008)
pIC50: −log10 of the molar value. Some results were stated once for a whole list of compounds, not compound by compound.

Amino acid sequences for entries named in this document (tags omitted).
UniProt P19634, whole entry: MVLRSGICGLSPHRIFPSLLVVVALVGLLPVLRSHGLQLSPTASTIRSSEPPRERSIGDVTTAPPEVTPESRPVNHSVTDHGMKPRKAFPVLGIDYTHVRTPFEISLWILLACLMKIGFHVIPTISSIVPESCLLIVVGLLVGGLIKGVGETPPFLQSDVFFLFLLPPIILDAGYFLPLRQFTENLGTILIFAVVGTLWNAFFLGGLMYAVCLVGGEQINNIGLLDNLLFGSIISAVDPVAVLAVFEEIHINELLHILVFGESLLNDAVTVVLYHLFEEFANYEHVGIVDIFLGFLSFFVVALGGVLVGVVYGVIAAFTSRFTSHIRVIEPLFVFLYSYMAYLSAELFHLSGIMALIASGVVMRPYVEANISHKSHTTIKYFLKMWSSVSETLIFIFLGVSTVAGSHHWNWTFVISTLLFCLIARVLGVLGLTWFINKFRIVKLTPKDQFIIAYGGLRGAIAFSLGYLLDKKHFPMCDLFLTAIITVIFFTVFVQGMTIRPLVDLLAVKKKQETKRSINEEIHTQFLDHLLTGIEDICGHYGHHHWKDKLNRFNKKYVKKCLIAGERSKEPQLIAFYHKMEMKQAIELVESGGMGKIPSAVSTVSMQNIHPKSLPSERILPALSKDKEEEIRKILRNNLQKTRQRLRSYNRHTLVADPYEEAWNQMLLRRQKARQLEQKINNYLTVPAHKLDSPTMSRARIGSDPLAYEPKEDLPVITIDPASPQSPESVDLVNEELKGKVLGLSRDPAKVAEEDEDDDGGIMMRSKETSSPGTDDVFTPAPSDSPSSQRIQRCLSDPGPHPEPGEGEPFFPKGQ

Target: T1, human NHE-1 (Homo sapiens, UniProt P19634)
T1 construct: expressed in transfected cells; host or cells: PS120 cells (derived from CCL39 hamster fibroblasts)
Assay: NHE-1 inhibitory effect in PS120/NHE-1 cells (recovery from intracellular acidification, BCECF fluorescence)
Format: cell-based
Settings: PS120 cells expressing human NHE-1; 50% inhibition of recovery from intracellular acidification
Method: Following experiments were performed to investigate NHE-1 inhibitory effect of test samples in cells. Particularly, human NHE-1 was expressed in PS120 cells originated from CCL39. The cells were cultured in DMEM (Dulbecco's modified Eagle's medium) medium supplemented with 10% fetal bovine serum, 1% penicillin/streptomycin (100× solution) and 1% L-glutamine (200 mM aqueous solution). […] Then, the cells were washed once with PBS (phosphate buffer saline) and once again with Na-free buffer (138.2 mM choline chloride, 4.9 mM KCl, 1.5 mM CaCl2.2H2O, 1.2 mM MgSO4.7H2O, 1.2 mM KH2PO4, 15 mM D-glucose, 20 mM HEPES, at pH 7.4). […] In order to eliminate NH4Cl and to wash out BCECF-AM remaining outside of cells, PS120/NHE-1 cells were centrifuged and washed once with Na-free buffer. […] After 4 minutes from the cell addition, fluorescence (Excitation 485/444 nm, Emission 535 nm) was measured with a spectrofluorophotometer ([…]; Molecular Device) for 96-well plate. The measured fluorescent values were converted into pH by using high-K^+/nigericin technique. The acidified cells by NH4Cl prepulse were recovered by the action of NHE-1. […] In the meantime, cariporide was used as a control.

| Substance | pIC50 |
| --- | --- |
| [5-(2,6-dimethylphenyl)furan-2-ylcarbonyl]guanidine [Example 41] | > 5.30 |
| [5-(3-methylphenyl)furan-2-ylcarbonyl]guanidine [Example 9] | > 5.30 |
| [5-(2,3-dimethylphenyl)furan-2-ylcarbonyl]guanidine [Example 44] | > 5.30 |

Test system: ischemic rat heart
Assay: Cardioprotective effect on in vivo ischemic rat heart model (LAD occlusion 45 min / reperfusion 90 min, infarct size)
Settings: by the administration of 0.1 mg/kg
Method: Left thoracotomy was performed. […] Cariporide was used for a control group.

| Substance | myocardial infration rate (summary sentence of the text) |
| --- | --- |
| [5-(2,5-difluorophenyl)furan-2-ylcarbonyl]guanidine [Example 30] | under 40% |
| [5-(2,5-dichlorophenyl)furan-2-ylcarbonyl]guanidine [Example 38] | under 40% |
| [5-(2-chlorophenyl)furan-2-ylcarbonyl]guanidine [Example 5] | under 40% |
| [5-(3,5-dichlorophenyl)furan-2-ylcarbonyl]guanidine [Example 36] | under 40% |
| [5-(2-methyl-5-fluorophenyl)furan-2-ylcarbonyl]guanidine [Example 34] | under 40% |
| [5-(2-ethylphenyl)furan-2-ylcarbonyl]guanidine [Example 23] | under 40% |
| [5-(3-fluorophenyl)furan-2-ylcarbonyl]guanidine [Example 2] | under 40% |
| [5-(2-methoxy-5-fluorophenyl)furan-2-ylcarbonyl]guanidine [Example 35] | under 40% |
| [5-(2-methoxy-5-chlorophenyl)furan-2-ylcarbonyl]guanidine [Example 39] | under 40% |
| [5-(3,5-difluorophenyl)furan-2-ylcarbonyl]guanidine [Example 28] | under 40% |
